In US20150141478A1, “SERIES OF DRUGS USING PHOTOFRIN TO CATALYZE DECOMPOSITION OF HYDROGEN PEROXIDE” (Wuxi Zhaozhen Radiation Technology Co., Ltd., priority 2012, published 2015):
Several values for one entry are separate records, joined by “and”; a condition that tells them apart may be missing. Identical values can stand only once. For at least one compound, name, drawing or mass did not settle the structure.

Assay: Decomposition of H2O2 catalysed by photofrin with X-ray activation (RCDT method), 1O2 measured by DMA fluorescence

C=CC1=C(C)c2cc3[nH]c(cc4nc(cc5[nH]c(cc1n2)c(C)c5CCC(=O)O)C(CCC(=O)O)=C4C)c(C)c3C=C [PpIX, Protoporphyrin IX]
reaction time (15 uM, 10 MeV X-ray, 5Gy): about 1 min
increase of reaction rate versus reaction catalysed by merely haematoporphyrin (15 uM, X-ray activation 5Gy): ~500 times
used concentration of H2O2 as fraction of the concentration (1.5% H2O2) used with merely haematoporphyrin (15 uM, X-ray activation 5Gy): 1/20 to 1/50 and 1/150
DMA bound by 1O2 free radicals (0.01% H2O2, X-ray 5Gy, background subtraction): ~40%
DMA bound by 1O2 free radicals (0.03% H2O2, X-ray 5Gy): ≥ 90%
catalytic effect relative to HPD (same conditions, 15 uM, 10 MeV X-ray 5Gy): ≥ 50 times
